Our source for the binding values is article PMC8058344, “ARIH1 signaling promotes anti-tumor immunity by targeting PD-L1 for proteasomal degradation” (Nature Communications, 2021).

By UniProt entry, the sequences of proteins in these tests, tags left out. Where a name states a change or a piece, a line headed by the entry shows the natural chain unless it says otherwise.
UniProt Q9NZQ7: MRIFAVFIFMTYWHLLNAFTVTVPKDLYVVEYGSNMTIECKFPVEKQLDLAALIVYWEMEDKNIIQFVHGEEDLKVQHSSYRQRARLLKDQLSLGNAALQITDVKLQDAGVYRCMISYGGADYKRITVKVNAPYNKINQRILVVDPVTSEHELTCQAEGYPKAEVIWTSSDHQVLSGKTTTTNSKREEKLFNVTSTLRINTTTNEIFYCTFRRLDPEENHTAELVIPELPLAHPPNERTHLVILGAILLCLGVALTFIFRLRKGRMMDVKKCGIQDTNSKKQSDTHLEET
UniProt Q9Y4X5: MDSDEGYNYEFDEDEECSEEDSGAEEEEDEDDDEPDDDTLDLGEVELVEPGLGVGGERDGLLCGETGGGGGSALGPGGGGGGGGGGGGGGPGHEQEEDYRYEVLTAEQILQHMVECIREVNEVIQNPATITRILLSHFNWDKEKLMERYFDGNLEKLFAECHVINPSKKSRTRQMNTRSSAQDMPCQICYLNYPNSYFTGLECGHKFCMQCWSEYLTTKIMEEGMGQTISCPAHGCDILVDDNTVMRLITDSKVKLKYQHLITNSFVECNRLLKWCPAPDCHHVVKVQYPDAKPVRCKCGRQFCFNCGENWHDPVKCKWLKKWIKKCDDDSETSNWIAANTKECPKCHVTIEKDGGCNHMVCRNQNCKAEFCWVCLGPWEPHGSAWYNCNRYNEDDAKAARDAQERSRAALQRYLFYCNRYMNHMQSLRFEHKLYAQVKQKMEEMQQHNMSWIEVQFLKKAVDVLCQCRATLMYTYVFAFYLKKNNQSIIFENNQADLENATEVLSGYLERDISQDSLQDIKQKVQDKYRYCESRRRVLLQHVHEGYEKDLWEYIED

This test concerns the target GST-PD-L1 (human) (UniProt Q9NZQ7). Kind of test: pull-down; purified GST-PD-L1 on glutathione-Sepharose 4B beads (4 °C, 1 h), then HA-ARIH1 from transfected HEK293T cells added (4 °C, 2 h); western blot; only the target purified.

These are yes or no findings as the source states them, for the method shown. In cells and extracts the contact can be indirect. A result given as binding can be weak or reduced; the word gives no strength.

Regarding “HA-ARIH1 (WT) (from UniProt Q9Y4X5 1-557) (enzyme)”, the binding result is “binds”.
